Test results reported in patent publication US20160046707A1.
Where a chain is given by its changes, count along the chain named. Results are given in words; binding and its absence hold for the method and conditions named. Binding calls can cover weak binding; strength is not graded here.

Tests used:
[1] = target: cynomolgus CCL20-secreted alkaline phosphatase (SEAP) fusion (cynomolgus monkey); assay: ELISA (FIGS. 16A-C)
[2] = target: rhesus CCL20-secreted alkaline phosphatase (SEAP) fusion (rhesus monkey); assay: ELISA (FIGS. 16A-C)
[3] = target: cynomolgus CCL20-secreted alkaline phosphatase (SEAP) fusion (cynomolgus monkey); assay: ELISA (FIGS. 17A and B)
[4] = target: rhesus CCL20-secreted alkaline phosphatase (SEAP) fusion (rhesus monkey); assay: ELISA (FIGS. 17A and B)
[5] = target: cynomolgus CCL20-secreted alkaline phosphatase (SEAP) fusion (cynomolgus monkey); assay: SPR (Biacore), CCL20-SEAP captured by anti-SEAP
[6] = target: rhesus CCL20-secreted alkaline phosphatase (SEAP) fusion (rhesus monkey); assay: SPR (Biacore), CCL20-SEAP captured by anti-SEAP
[7] = target: cynomolgus CCL20-secreted alkaline phosphatase (SEAP) fusion (cynomolgus monkey); assay: ELISA, CCL20-SEAP captured by anti-alkaline phosphatase antibody
[8] = target: rhesus CCL20-secreted alkaline phosphatase (SEAP) fusion (rhesus monkey); assay: as above
[9] = target: cynomolgus CCL20-secreted alkaline phosphatase (SEAP) fusion (cynomolgus monkey); assay: ELISA on CCL20-SEAP, Abs 450; x axis 'ug/ml' in 4-fold steps down from 10, taken as the antibody concentration as in FIG. 11C
[10] = target: rhesus CCL20-secreted alkaline phosphatase (SEAP) fusion (rhesus monkey); assay: as above
[11] = target: cynomolgus CCL20-secreted alkaline phosphatase (SEAP) fusion (cynomolgus monkey); assay: ELISA (fluorescent HRP substrate): CCL20-SEAP captured on anti-alkaline phosphatase in 5-fold dilutions from 20 nM (x axis, nM), antibody at 1 ug/ml
[12] = target: rhesus CCL20-secreted alkaline phosphatase (SEAP) fusion (rhesus monkey); assay: as above

Measured: binding

B1: humanized anti-human CCL20 antibody 36LC3/36HC2 (antibody, human IgG1, kappa, V domains shown)
VH: QVQLVQSGAEVKKPGASVKVSCKASGYTFTNYWMHWVRQAPGQGLEWMGVIDPSDSYTTYAQKFQGRVTMTVDTSTSTVYMELSSLRSEDTAVYYCARGNYGVDYAMDYWGQGTLVTVSS
VL: DIQMTQSPSSLSASVGDRVTITCRASENIYGALNWYQQKPGKAPKLLIYGATNLADGVPSRFSGSGSGRQYSLTISSLQPEDFATYYCQNVLITPYTFGGGTKLEIKR
binds: all assays above

B2: mouse anti-human CCL20 monoclonal antibody 36F7C10 (antibody, V domains shown)
VH: QVQLQQPGAELVKPGASVKMSCKASGYTFTNYWMHWVKQRPGQGLEWIGVIDPSDSYTTYNQKFKGKATLTVDTSSSTAYMQLSSLTSEDSAVYYCTRGNYGVDYAMDYWGQGTSVTVSS
VL: DIQMTQSPASLSASVGETVTITCGASENIYGALNWYQRKQGKSPQLLIYGATNLADGMSSRFSGSGSGRQYSLKISSLHPDDVATYYCQNVLITPYTFGGGTKLEIK
binds: [9] | [10]

B3: chimeric 36F7C10 antibody (36F7C10-hFc) (antibody, V domains shown)
VH: B2 VH
VL: B2 VL
not listed: [11] | [12]
binds: all other assays above

B4: humanized anti-human CCL20 antibody 36LK3/36HC2 (antibody, human IgG1, kappa, V domains shown)
VH: B1 VH
VL: B1 VL with R24G, Q38R, Q70D, S72T, G100Q
not listed: [11] | [12]
binds: all other assays above
